In article PMC6465933, “Direct Binding of the Flexible C-Terminal Segment of Periaxin to β4 Integrin Suggests a Molecular Basis for CMT4F” (Frontiers in Molecular Neuroscience, 2019):
Results are given in words; binding and its absence hold for the method and conditions named. For some assays here: In cells and extracts the contact can be indirect. Some results given as binding are weak or reduced against the parent protein; the word gives no strength. For some assays here: Tags and fused reporters may be left off the sequences shown.

Legend:
[1] = target: T1, PRX expressed in HEK293 cells (UniProt Q63425); test: co-IP; HEK293 cells coexpressing β4 integrin, α6 integrin and PRX; IP with β4 integrin or PRX antibodies; Western blot
T1 sequence: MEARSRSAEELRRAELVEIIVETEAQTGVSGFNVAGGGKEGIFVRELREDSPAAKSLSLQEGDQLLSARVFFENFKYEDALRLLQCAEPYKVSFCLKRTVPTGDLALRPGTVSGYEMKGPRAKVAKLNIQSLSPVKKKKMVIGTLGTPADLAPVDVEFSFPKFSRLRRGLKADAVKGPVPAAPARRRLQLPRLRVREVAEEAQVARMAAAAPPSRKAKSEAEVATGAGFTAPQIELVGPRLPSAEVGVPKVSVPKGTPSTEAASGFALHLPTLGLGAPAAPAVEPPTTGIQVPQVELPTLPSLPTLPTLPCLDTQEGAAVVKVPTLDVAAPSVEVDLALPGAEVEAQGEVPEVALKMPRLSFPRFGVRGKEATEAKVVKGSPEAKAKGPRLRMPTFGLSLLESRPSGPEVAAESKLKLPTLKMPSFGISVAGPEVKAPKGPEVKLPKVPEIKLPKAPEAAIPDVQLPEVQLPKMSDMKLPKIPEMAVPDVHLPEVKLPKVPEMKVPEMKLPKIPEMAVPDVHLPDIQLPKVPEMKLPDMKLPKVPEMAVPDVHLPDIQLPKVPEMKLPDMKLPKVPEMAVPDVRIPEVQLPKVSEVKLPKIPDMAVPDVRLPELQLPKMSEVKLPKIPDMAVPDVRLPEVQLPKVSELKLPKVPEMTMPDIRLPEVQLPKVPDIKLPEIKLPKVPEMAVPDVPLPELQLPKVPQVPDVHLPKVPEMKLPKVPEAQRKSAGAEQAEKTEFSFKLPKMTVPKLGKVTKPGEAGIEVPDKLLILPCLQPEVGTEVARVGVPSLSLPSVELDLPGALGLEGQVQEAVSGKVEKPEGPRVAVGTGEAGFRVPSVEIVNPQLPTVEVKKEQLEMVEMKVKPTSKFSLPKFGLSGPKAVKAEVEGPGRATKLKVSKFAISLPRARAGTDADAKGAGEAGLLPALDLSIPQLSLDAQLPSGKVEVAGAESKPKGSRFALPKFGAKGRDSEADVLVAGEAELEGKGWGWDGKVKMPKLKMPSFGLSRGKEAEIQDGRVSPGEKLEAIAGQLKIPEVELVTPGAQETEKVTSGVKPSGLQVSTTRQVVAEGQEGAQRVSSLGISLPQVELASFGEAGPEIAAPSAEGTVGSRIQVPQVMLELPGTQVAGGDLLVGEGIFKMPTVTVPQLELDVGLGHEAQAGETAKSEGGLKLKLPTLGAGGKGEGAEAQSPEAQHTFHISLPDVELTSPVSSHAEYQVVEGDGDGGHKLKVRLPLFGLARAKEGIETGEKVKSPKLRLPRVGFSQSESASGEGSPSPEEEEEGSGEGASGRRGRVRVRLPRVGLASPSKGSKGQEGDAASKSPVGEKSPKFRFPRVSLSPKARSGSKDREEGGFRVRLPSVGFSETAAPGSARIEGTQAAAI

[2] = target: T2, GST-β4-FNIII-3 fusion protein (β4 integrin amino acids 1512–1593) (UniProt Q64632); test: pull-down; GST fusion protein bound to Glutathione-Sepharose incubated with a sciatic nerve lysate; bound proteins detected by Western blot; only the target purified
T2 sequence: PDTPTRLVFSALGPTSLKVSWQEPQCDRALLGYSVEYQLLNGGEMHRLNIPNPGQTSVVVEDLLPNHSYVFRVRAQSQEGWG

[3] = target: rat β4 integrin, full length, expressed in HEK293 cells (rat) (UniProt Q64632); test: co-IP; HEK293 cells coexpressing β4 integrin, α6 integrin and PRX; IP with β4 integrin or PRX antibodies; Western blot
[4] = target: T3, His-tagged rat β4-FNIII-3 (β4 integrin amino acids 1512–1602) (rat) (UniProt Q64632); test: condition: 1 mM peptide in the syringe, 100 μM His-β4-FNIII-3 in the cell; ITC; 1 mM peptide in the syringe, 100 μM His-β4-FNIII-3 in the cell, 25°C; both purified
T3 sequence: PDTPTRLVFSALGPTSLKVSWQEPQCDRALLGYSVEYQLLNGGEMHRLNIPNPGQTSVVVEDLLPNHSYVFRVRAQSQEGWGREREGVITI

## rat β4 integrin, full length, expressed in HEK293 cells (from UniProt Q64632 28-1807) (receptor)
[1]
  binding: binds

B1: L-PRX in sciatic nerve lysate (protein, UniProt O55103 1-1391)
chain: MEARSRSAEELRRAELVEIIVETEAQTGVSGFNVAGGGKEGIFVRELREDSPAAKSLSLQEGDQLLSARVFFENFKYEDALRLLQCAEPYKVSFCLKRTVPTGDLALRPGTVSGYEMKGPRAKVAKLNIQSLAPVKKKKMVTGALGTPADLAPVDVEFSFPKFSRLRRGLKAEAVKGPVPAAPARRRLQLPRLRVREVAEEAQVARMAAAAPPPRKAKAEAEAATGAGFTAPQIELVGPRLPSAEVGVPQVSVPKGTPSTEAASGFALHLPTLGLGAPAAPAVEPPATGIQVPQVELPTLPSLPTLPTLPCLDTQEGAAVVKVPTLDVAAPSMGVDLALPGAEVEAQGEVPEVALKMPRLSFPRFGIRGKEATEAKVVKGSPEAKAKGPRLRMPTFGLSLLEPRPSGPEAVAESKLKLPTLKMPSFGIGVAGPEVKAPTGPEVKLPKVPEVKLPKVPEAAIPDVQLPEVQLPKMSDMKLPKIPEMVVPDVRLPEVQLPKVPEMKVPEMKLPKWPEMAVPDVHLPDVQLPKVPEMKLPKVPEMAVPDVHLPDVQLPKVPEMKLPEMKLPKVPEMAVPDVRLPEVQLPKVSEVKLPKMPEMAVPDVHLPELQLPKMSEVKLPKMPEMAVPDVRLPEVQLPKVSEMKLPKMPEMTMPDIRLPEVQLPKVPDIKLPEMKLPEIKLPKVPDMAVPDVPLPELQLPKVSDIRLPEMQVSQVPEVQLPKMPEMKLSKVPEVQRKSAGAEQAKGTEFSFKLPKMTMPKLGKVGKPGEASIEVPDKLMTLPCLQPEVGTEASHVGVPSLSLPSVELDLPGALGLEGQVQEAVPGKVEKPEGPRVAVGVGEVGFRVPSVEIVTPQLPTVEVEKEQLEMVEMKVKPSSKFSLPKFGLSGPKAVKGEVEGPGRATKLKVSKFTISLPKARAGTEAEAKGAGEAGLLPALDLSIPQLSLDAQLPSGKVEVADSKPKSSRFALPKFGVKGRDSEADVLVAGEAELEGKGWGWDGKVKMPKLKMPSFGLSRGKEAETQDGRVSPGEKLEAIAGQLKIPAVELVTPGAQETEKVTSGVKPSGLQVSTTGQVVAEGQESVQRVSTLGISLPQVELASFGEAGPEIVAPSAEGTAGSRVQVPQVMLELPGTQVAGGDLLVGEGIFKMPTVTVPQLELDVGLGHEAQAGEAAKSEGGIKLKLPTLGTGSRGEGVEPQGPEAQRTFHLSLPDVELTSPVSSHAEYQVVEGDGDGGHKLKVRLPLFGLAKAKEGIEVGEKVKSPKLRLPRVGFSQSESVSGEGSPSPEEEEEGSGEGASSRRGRVRVRLPRVGLASPSKVSKGQEGDATSKSPVGEKSPKFRFPRVSLSPKARSGSRDREEGGFRVRLPSVGFSETAVPGSTRIEGTQAAAI
[2]
  binding: binds

B2: dystrophin-related protein 2 in sciatic nerve lysate (protein, UniProt Q05AA6 1-957)
chain: MQPLVMQGCPYTLPRCHEWHAADRFHHSSSLRNTCPQPQVRAAVTIPAPPWDGAGDPCLSPKLLNGTVGATGPLEPSAMNLCWNEIKKKSHNLRARLEAFSDLSGKLQLPLREIIDWLSQKDEELSAQLPLQGDVALVQQEKETHAAFMEEVKSKGPYISSVLESAQAFLSQHPFEELEESQSESKDTSPRQRIQNLSRFVWKQATVASELWEKLTARCVDQHRHIEHTLEHLLEIQGAMEELSSTLTQAEGVRATWEPIGDLFIDSLPEHIQAIKLFKEEFSPVKDGVKLVNDLAHQLAISDVHLSMENSRALEQINIRWKQLQVSVAERLKQLQDAHRDFGPGSQHFLSTSVQVPWERAISPNKVPYYINHQAQTTCWDHPKMTELYQTLADLNNIKFSAYRTAMKLRRVQKALRLDLVTLTTALEIFNEHDLQASEHVMDVVEVIHCLTALYERLEEERGILVNVPLCVDMSLNWLLNVFDSGRSGKMRALSFKTGIACLCGTEVKEKLQYLFSQVANSGSQCDQRHLGALLHEAIQVPRQLGEVAAFGGSNVEPSVRSCFRFSTGKPVIEASQFLEWVNLEPQSMVWLAVLHRVTIAEQVKHQTKCSICRQCPIKGFRYRSLKQFNVDICQTCFLTGRASKGNKLHYPIMEYYTPTTSSENMRDFATTLKNKFRSKQYFSKHPQRGYLPVQSVLESDCSETPASSPMLPHADTHSRIEHFASRLAEMESQNCSFFNDSLSPDDSIDEDQYLLRHSSPITDREPAFGQQAPCSMATESKGELEKILAHLEDENRILQGELRRLKWQHEEAAEAPTLVEGSAEATPDHRNEELLAEARILRQHKSRLETRMQILEDHNKQLESQLQRLRELLLQPPSESDGNGSAGSSLASSPRQSEGSHPREKGQTTPDTEVADDVGSKSQDVSLCLEDIMEKLRHAFPSVRSSDVTANTLLAS
[2]
  binding: binds

B3: PRX expressed in HEK293 cells (protein, UniProt Q63425 1-1383)
chain: MEARSRSAEELRRAELVEIIVETEAQTGVSGFNVAGGGKEGIFVRELREDSPAAKSLSLQEGDQLLSARVFFENFKYEDALRLLQCAEPYKVSFCLKRTVPTGDLALRPGTVSGYEMKGPRAKVAKLNIQSLSPVKKKKMVIGTLGTPADLAPVDVEFSFPKFSRLRRGLKADAVKGPVPAAPARRRLQLPRLRVREVAEEAQVARMAAAAPPSRKAKSEAEVATGAGFTAPQIELVGPRLPSAEVGVPKVSVPKGTPSTEAASGFALHLPTLGLGAPAAPAVEPPTTGIQVPQVELPTLPSLPTLPTLPCLDTQEGAAVVKVPTLDVAAPSVEVDLALPGAEVEAQGEVPEVALKMPRLSFPRFGVRGKEATEAKVVKGSPEAKAKGPRLRMPTFGLSLLESRPSGPEVAAESKLKLPTLKMPSFGISVAGPEVKAPKGPEVKLPKVPEIKLPKAPEAAIPDVQLPEVQLPKMSDMKLPKIPEMAVPDVHLPEVKLPKVPEMKVPEMKLPKIPEMAVPDVHLPDIQLPKVPEMKLPDMKLPKVPEMAVPDVHLPDIQLPKVPEMKLPDMKLPKVPEMAVPDVRIPEVQLPKVSEVKLPKIPDMAVPDVRLPELQLPKMSEVKLPKIPDMAVPDVRLPEVQLPKVSELKLPKVPEMTMPDIRLPEVQLPKVPDIKLPEIKLPKVPEMAVPDVPLPELQLPKVPQVPDVHLPKVPEMKLPKVPEAQRKSAGAEQAEKTEFSFKLPKMTVPKLGKVTKPGEAGIEVPDKLLILPCLQPEVGTEVARVGVPSLSLPSVELDLPGALGLEGQVQEAVSGKVEKPEGPRVAVGTGEAGFRVPSVEIVNPQLPTVEVKKEQLEMVEMKVKPTSKFSLPKFGLSGPKAVKAEVEGPGRATKLKVSKFAISLPRARAGTDADAKGAGEAGLLPALDLSIPQLSLDAQLPSGKVEVAGAESKPKGSRFALPKFGAKGRDSEADVLVAGEAELEGKGWGWDGKVKMPKLKMPSFGLSRGKEAEIQDGRVSPGEKLEAIAGQLKIPEVELVTPGAQETEKVTSGVKPSGLQVSTTRQVVAEGQEGAQRVSSLGISLPQVELASFGEAGPEIAAPSAEGTVGSRIQVPQVMLELPGTQVAGGDLLVGEGIFKMPTVTVPQLELDVGLGHEAQAGETAKSEGGLKLKLPTLGAGGKGEGAEAQSPEAQHTFHISLPDVELTSPVSSHAEYQVVEGDGDGGHKLKVRLPLFGLARAKEGIETGEKVKSPKLRLPRVGFSQSESASGEGSPSPEEEEEGSGEGASGRRGRVRVRLPRVGLASPSKGSKGQEGDAASKSPVGEKSPKFRFPRVSLSPKARSGSKDREEGGFRVRLPSVGFSETAAPGSARIEGTQAAAI
[3]
  binding: binds

B4: PRX-C peptide 1 (residues 1091–1110) (peptide)
peptide: ASFGEAGPEIAAPSAEGTVG
modifications: N-terminal acetylation; C-terminal amidation
[4]
  binding: no binding

B5: PRX-C peptide 2 (residues 1112–1133) (peptide)
peptide: RIQVPQVMLELPGTQVAGGDLL
modifications: N-terminal acetylation; C-terminal amidation
[4]
  binding: no binding

B6: PRX-C peptide 3 (residues 1135–1160) (peptide)
peptide: GEGIFKMPTVTVPQLELDVGLGHEAQ
modifications: N-terminal acetylation; C-terminal amidation
[4]
  binding: no binding

B7: PRX-C peptide 4 (residues 1290–1310) (peptide)
peptide: SGRRGRVRVRLPRVGLASPSK
modifications: N-terminal acetylation; C-terminal amidation
[4]
  binding: no binding
